# Assay results from publication PMC12431657, “Discovery and mechanistic insights of dibenzoylmethane as a broad spectrum inhibitor of coronavirus” (PLOS Pathogens, 2025).
# Like-named read-outs stand apart in the source and are kept apart here. Among all 3,300 compounds or so, about 60 (2%) showed an effect of 50% or more. The list shows a part of the results.
# Tested on: HCoV-OC43
# Design: species or system RD; HTS, protection from HCoV-OC43 induced cell death, luminescent cell viability (CellCounting-Lite 2.0), inhibition rate
# Conditions: 24 h post infection, 1 h compound pre-incubation, 10 µM, inhibitor
SMILES,OC43 Inhibition rate [%],"OC43 Inhibition rate (OC43 Inhibition rate, 24 h) [%]"
C=C[C@H]1[C@H](O[C@@H]2O[C@H](CO)[C@@H](O)[C@H](O)[C@H]2O)OC=C(C(=O)OC)[C@H]1CC(=O)O [Secoxyloganin],0.3,
"COc1cc(O)c2c(=O)cc(-c3ccc(OC)c(OC)c3)oc2c1 [7,3',4'-Tri-O-methylluteolin]",0,
C/C(=C/C(=O)O)C(=O)O [Citraconic acid],-1.1,
C=C(C)[C@H](CC=C(C)C)Cc1c(O)cc(OC)c2c1O[C@H](c1ccc(O)cc1O)[C@@H](O)C2=O [Kushenol I],41.5,
CC[C@@]1(O)C(=O)OCc2c1cc1n(c2=O)Cc2cc3c(N)cccc3nc2-1 [9-amino-CPT],-9.5,
COC1=C(OC)C(=O)C(C/C=C(\C)CC/C=C(\C)CC/C=C(\C)CC/C=C(\C)CC/C=C(\C)CC/C=C(\C)CC/C=C(\C)CC/C=C(\C)CCC=C(C)C)=C(C)C1=O [Coenzyme Q9],0.1,
O=C(O)/C=C/c1ccc(O)cc1 [p-Coumaric acid],-0.2,
NCC(=O)NCC(=O)O [Glycylglycine],1.4,
C/C=C/c1ccc(OC)cc1 [Anethole],,0.3
O=c1cc(-c2ccc(O)cc2)oc2c([C@@H]3O[C@H](CO)[C@@H](O)[C@H](O)[C@H]3O)c(O)c([C@@H]3OC[C@H](O)[C@H](O)[C@H]3O)c(O)c12 [Isoschaftoside],7.2,
N[C@@H](Cc1ccccc1)C(=O)O [L-Phenylalanine],-3.1,
CC(=O)O[C@]1(C(C)=O)CC[C@H]2[C@@H]3C[C@H](C)C4=CC(=O)CC[C@]4(C)[C@H]3CC[C@@]21C [Medroxyprogesterone acetate],-0.2,
COc1c2c(cc3oc(CO[C@@H]4O[C@H](CO)[C@@H](O)[C@H](O)[C@H]4O)cc(=O)c13)O[C@H](C(C)(C)O)C2 [Prim-O-glucosylcimifugin],-0.2,
O=C1CCC[C@@H]2[C@H]3CCCN4CCC[C@H](CN12)[C@@H]34 [Sophoridine],0.9,
"Cc1cnc(C)cn1 [2,5-Dimethylpyrazine]",-0.8,
O=P(O)(O)OC[C@H](O)CO [sn-Glycerol 3-phosphate],-3.2,
O=C(OC1O[C@@H]2COC(=O)c3cc(O)c(O)c(O)c3-c3c(cc(O)c(O)c3O)C(=O)O[C@H]2[C@H](OC(=O)c2cc(O)c(O)c(O)c2)[C@H]1OC(=O)c1cc(O)c(O)c(O)c1)c1cc(O)c(O)c(O)c1 (stereo partly shown) [Tellimagrandin II],8.8,
COc1cc(O)c(CC=C(C)C)c2c1C(=O)C[C@@H](c1ccc(O)cc1)O2 [(2S)-Isoxanthohumol],48.2,
Cc1ccccc1C=O [2-Methylbenzaldehyde],-0.2,
c1ccc2c(c1)CCO2 [Coumaran],-0.6,
CC(=O)c1ccc(C)cc1O [2'-Hydroxy-4'-methylacetophenone],0.3,
"Cc1cnc(C)c(C)n1 [2,3,5-Trimethylpyrazine]",1,

SMILES,OC43 Inhibition rate [%],"OC43 Inhibition rate (OC43 Inhibition rate, 24 h) [%]"
C[C@H](CC(=O)C[C@](C)(O)[C@@H]1CC(=O)[C@@]2(C)C3=C(C(=O)C[C@]12C)[C@@]1(C)CC[C@H](O)C(C)(C)[C@@H]1C[C@@H]3O)C(=O)O [Ganoderic acid I],-0.5,
C[C@H](CCC(=O)NCCS(=O)(=O)O)[C@H]1CC[C@H]2[C@@H]3[C@H](O)C[C@@H]4C[C@H](O)CC[C@]4(C)[C@H]3CC[C@]12C [Taurochenodeoxycholic acid],,-3.9
Oc1ccc(C2COc3cc(O)ccc3C2)cc1 (racemic) [(±)-Equol],3.5,
Cc1ccc(C(C)C)cc1O [Carvacrol],1.2,
Oc1ccc2ccc3cccc4ccc1c2c34 [1-Hydroxypyrene],16.8,
CC(C)(O)[C@@H](O)COc1c2ccoc2cc2oc(=O)ccc12 [(-)-Oxypeucedanin hydrate],2,
CC(C)=CCC[C@@H](C)CCO [(R)-Citronellol],-0.5,
C=CCc1ccc(OC)c(OC)c1 [Methyl Eugenol],0.2,
C=C1C(=O)O[C@@H]2CC(C)=C([C@@H](C)CCCOC(C)=O)[C@@H](O)[C@H]12 [Inulicin],2.8,
CC(C)=CCC[C@H](C)[C@@H]1CC[C@]2(C)C3=C(CC[C@@]12C)[C@@]1(C)CC[C@H](O)C(C)(C)[C@@H]1CC3 [Tirucallol],1.2,
Oc1cnc2c(O)cccc2c1 [Jineol],-0.6,
COc1cc(C(C)=O)ccc1O[C@@H]1O[C@H](CO)[C@@H](O)[C@H](O)[C@H]1O [Androsin],2.2,
O[C@@H]1[C@@H](O)[C@@H]2OC[C@@H](O2)[C@H]1O [Levoglucosan],2.7,
COC(=O)C1=CO[C@@H](O[C@@H]2O[C@H](CO)[C@@H](O)[C@H](O)[C@H]2O)[C@H]2[C@@H]1[C@H](O)C[C@]2(C)O [Shanzhiside methyl ester],2.1,
COc1ccc2c(c[n+](C)c3c4cc5c(cc4ccc23)OCO5)c1OC [Chelerythrine (chloride)],-6,
COc1cc2c(cc1O)CC[N+](C)(C)[C@@H]2Cc1ccc(O)cc1 [Lotusine (hydroxide)],-0.6,
COc1cc(-c2coc3cc(O[C@@H]4O[C@H](CO)[C@@H](O)[C@H](O)[C@H]4O)c(OC)c(O)c3c2=O)cc(O)c1OC [Iridin],0.1,
C=C(C)[C@@H]1CC=C(CO)CC1 [(S)-(−)-Perillyl alcohol],,-0.5
CNc1ccc2oc(C[C@H]3O[C@@]4(CC[C@H]3C)O[C@H]([C@H](C)C(=O)c3ccc[nH]3)[C@H](C)C[C@H]4C)nc2c1C(=O)O [Calcimycin],-0.2,
CN1CC[C@]23c4ccccc4N[C@H]1[C@]21CCN(C)[C@H]3Nc2ccccc21 [Calycanthine],1.8,
CC(C)CCC[C@@H](C)[C@H]1CC[C@H]2C3=CC[C@H]4C[C@@H](O)CC[C@]4(C)[C@H]3CC[C@]12C [Lathosterol],-0.2,

# As entered above:
# Under OC43 Inhibition rate [%], `C[C@H](CC(=O)C[C@](C)(O)[C@@H]1CC(=O)[C@@]2(C)C3=C(C(=O)C[C@]12C)[C@@]1(C)CC[C@H](O)C(C)(C)[C@@H]1C[C@@H]3O)C(=O)O` [Ganoderic acid I] has -0.5
# Under OC43 Inhibition rate [%], `Oc1ccc2ccc3cccc4ccc1c2c34` [1-Hydroxypyrene] has 16.8
